The list is a part of this screen's results and no random one: it gathers tests that were run many times, whatever their T/C, doses with no T/C, and many T/C values between a quarter and a half above the control. Further doses and runs are listed elsewhere. T/C is the treated group as % of the vehicle group. Some doses have a count of surviving animals in place of a T/C: the source holds a T/C of zero for them, seemingly a mark for toxic or unscored doses. Some survivor counts are full or nearly so, which does not show that the dose was tolerated: survival well below the control is almost never listed, so the zero probably covers shortened survival too. Counts of survivors are from the toxicity check (mostly the fifth day) where no day follows; animals may have died later. Schedules are NCI's codes, taken here to give the interval after Q, in days (D) or hours (H), and the number of doses after X. Signs of the kind (2×) say how often a value occurs here. Some entries were tested several times; their values stand side by side, smallest first. Where survival is the endpoint, this PubChem deposit counts one and a half times the control or more as active, and values a quarter to a half above the control carry no call in these data; other NCI protocols may use other cut-offs.
System: L1210 leukemia ip in BDF1 mice, survival T/C
Assay: NCI In Vivo Anticancer Drug Screen. Data for tumor model L1210 Leukemia (intraperitoneal) in B6D2F1 (BDF1) mice
Details: T/C endpoint: mean survival time, higher T/C = longer survival
[1] = dose: 400.0 mg/kg/injection, schedule: Q01DX001 (ip), vehicle: saline
[2] = dose: 400.0 mg/kg/injection, schedule: Q01DX001 (ip), vehicle: Klucel (hydroxypropylcellulose) (HPC)
[3] = dose: 100.0 mg/kg/injection, schedule: Q01DX001 (ip), vehicle: saline
[4] = dose: 200.0 mg/kg/injection, schedule: Q01DX001 (ip), vehicle: saline
[5] = dose: 200.0 mg/kg/injection, schedule: Q01DX009 (ip), vehicle: saline
[6] = dose: 400.0 mg/kg/injection, schedule: Q04DX003 (ip), vehicle: saline
[7] = dose: 200.0 mg/kg/injection, schedule: Q04DX003 (ip), vehicle: saline with Tween-80
[8] = dose: 200.0 mg/kg/injection, schedule: Q04DX003 (ip), vehicle: saline

Cc1ccccc1OCC(Cl)CN(C)C (stereo not drawn)
survivor count [1]: 0 of 4

O=C1C(=O)c2ccccc2C(O)=C1c1ccc(Br)cc1
survivor count (dose: 200.0 mg/kg/injection, schedule: Q01DX001 (ip), vehicle: carboxymethylcellulose (CMC)): 1 of 4 | survivor count (dose: 400.0 mg/kg/injection, schedule: Q01DX001 (ip), vehicle: carboxymethylcellulose (CMC)): 0 of 4

CCCCCCCCSCCC(=O)O
survivor count (dose: 400.0 mg/kg/injection, schedule: Q01DX009 (ip), vehicle: saline with Tween-80): 6 of 6

O=C/C(Br)=C(\Br)C(=O)O
survivor count (dose: 12.5 mg/kg/injection, schedule: Q01DX009 (ip), vehicle: carboxymethylcellulose (CMC)): 3 of 3 | survivor count (dose: 12.5 mg/kg/injection, schedule: Q04DX002 (ip), vehicle: carboxymethylcellulose (CMC)): 3 of 3 | survivor count (dose: 50.0 mg/kg/injection, schedule: Q01DX009 (ip), vehicle: carboxymethylcellulose (CMC)): 3 of 3 | survivor count (dose: 50.0 mg/kg/injection, schedule: Q04DX002 (ip), vehicle: carboxymethylcellulose (CMC)): 3 of 6 | survivor count (dose: 50.0 mg/kg/injection, schedule: Q04DX003 (ip), vehicle: carboxymethylcellulose (CMC)): 0 of 6 | survivor count (dose: 100.0 mg/kg/injection, schedule: Q04DX002 (ip), vehicle: carboxymethylcellulose (CMC)): 0 of 3 and 1 of 6 | survivor count (dose: 200.0 mg/kg/injection, schedule: Q04DX002 (ip), vehicle: carboxymethylcellulose (CMC)): 0 of 3 and 1 of 6 | survivor count (dose: 400.0 mg/kg/injection, schedule: Q04DX002 (ip), vehicle: carboxymethylcellulose (CMC)): 0 of 3 and 0 of 6

CN(C)CCCNC1=C(Cl)C(=O)C(NCCCN(C)C)=C(Cl)C1=O
survivor count (dose: 200.0 mg/kg/injection, schedule: Q04DX003 (ip), vehicle: acetone): 6 of 6 | survivor count (dose: 400.0 mg/kg/injection, schedule: Q04DX003 (ip), vehicle: acetone): 0 of 6

Cc1cc(Oc2nc(Cl)nc(C(Cl)(Cl)Cl)c2Cl)cc(C)c1N(C)C (tested in a mixture with another compound)
survivor count (dose: 400.0 mg/kg/injection, schedule: Q04DX003 (ip), vehicle: Klucel (hydroxypropylcellulose) (HPC)): 3 of 3

CCCCCCCCCCCC[n+]1c(C)cc(N)c2ccccc21
survivor count (dose: 9.5 mg/kg/injection, schedule: Q01DX001 (ip), vehicle: other): 6 of 6 | survivor count (dose: 19.0 mg/kg/injection, schedule: Q01DX001 (ip), vehicle: other): 2 of 6 | survivor count (dose: 38.0 mg/kg/injection, schedule: Q01DX001 (ip), vehicle: other): 0 of 6

Cc1ccc(C(=O)c2ccc(C)cc2)cc1
T/C (dose: 400.0 mg/kg/injection, schedule: Q04DX002 (ip), vehicle: saline): 142 % of control

COB(OC)C1CCCC1
survivor count [2]: 0 of 6

CCC[As](=O)(O)CC(C)C
survivor count (dose: 6.25 mg/kg/injection, schedule: Q01DX009 (ip), vehicle: saline): 1 of 3 | survivor count (dose: 25.0 mg/kg/injection, schedule: Q01DX009 (ip), vehicle: saline): 1 of 3 and 2 of 6 | survivor count (dose: 50.0 mg/kg/injection, schedule: Q01DX001 (ip), vehicle: saline): 3 of 6 | survivor count (dose: 50.0 mg/kg/injection, schedule: Q01DX009 (ip), vehicle: saline): 0 of 3 and 1 of 6 | survivor count [3]: 3 of 6 | survivor count (dose: 100.0 mg/kg/injection, schedule: Q01DX009 (ip), vehicle: saline): 0 of 3 and 0 of 6 | survivor count (dose: 100.0 mg/kg/injection, schedule: Q04DX002 (ip), vehicle: saline): 1 of 6 | survivor count (dose: 100.0 mg/kg/injection, schedule: Q04DX003 (ip), vehicle: saline): 4 of 6 | survivor count [4]: 0 of 6 | survivor count [5]: 0 of 6 | survivor count (dose: 200.0 mg/kg/injection, schedule: Q04DX002 (ip), vehicle: saline): 0 of 6 | survivor count [1]: 0 of 6 | survivor count (dose: 400.0 mg/kg/injection, schedule: Q01DX009 (ip), vehicle: saline): 0 of 6

O=NN(CCCl)C(=O)N(C1CCCCC1)C1CCCCC1
T/C (dose: 266.0 mg/kg/injection, schedule: Q01DX009 (ip), vehicle: carboxymethylcellulose (CMC)): 130 % of control

C=C(Br)S(=O)(=O)C(=C)Br
survivor count (dose: 25.0 mg/kg/injection, schedule: Q04DX002 (ip), vehicle: alcohol): 1 of 3 | survivor count (dose: 50.0 mg/kg/injection, schedule: Q04DX002 (ip), vehicle: alcohol): 0 of 3 | survivor count (dose: 100.0 mg/kg/injection, schedule: Q04DX002 (ip), vehicle: alcohol): 0 of 3 | survivor count (dose: 200.0 mg/kg/injection, schedule: Q04DX002 (ip), vehicle: alcohol): 0 of 3 | survivor count (dose: 400.0 mg/kg/injection, schedule: Q04DX002 (ip), vehicle: alcohol): 0 of 3

CN(C)CCC(C)(N)c1cccc2ccccc12 (stereo not drawn)
survivor count [6]: 0 of 6

CCCCCCCCCCCCCCCCCC[N+](CC)(CC)CC
survivor count (dose: 12.5 mg/kg/injection, schedule: Q01DX001 (ip), vehicle: Klucel (hydroxypropylcellulose) (HPC)): 2 of 6 | survivor count (dose: 25.0 mg/kg/injection, schedule: Q01DX001 (ip), vehicle: Klucel (hydroxypropylcellulose) (HPC)): 2 of 6 | survivor count (dose: 50.0 mg/kg/injection, schedule: Q01DX001 (ip), vehicle: Klucel (hydroxypropylcellulose) (HPC)): 1 of 6 | survivor count (dose: 100.0 mg/kg/injection, schedule: Q01DX001 (ip), vehicle: Klucel (hydroxypropylcellulose) (HPC)): 0 of 6 | survivor count (dose: 200.0 mg/kg/injection, schedule: Q01DX001 (ip), vehicle: Klucel (hydroxypropylcellulose) (HPC)): 0 of 6 | survivor count [2]: 0 of 6

C=CCOCC(O)C[As](=O)(O)c1ccc(OC)cc1 (stereo not drawn)
survivor count (dose: 50.0 mg/kg/injection, schedule: Q04DX003 (ip), vehicle: saline with Tween-80): 1 of 6 | survivor count (dose: 100.0 mg/kg/injection, schedule: Q04DX003 (ip), vehicle: saline with Tween-80): 0 of 6 (2×) | survivor count [7]: 0 of 6 | survivor count (dose: 400.0 mg/kg/injection, schedule: Q04DX003 (ip), vehicle: saline with Tween-80): 0 of 6

CC(=O)OC(C#N)c1cccc([N+](=O)[O-])c1 (stereo not drawn)
survivor count (dose: 50.0 mg/kg/injection, schedule: Q04DX002 (ip), vehicle: Klucel (hydroxypropylcellulose) (HPC)): 0 of 3 | survivor count (dose: 100.0 mg/kg/injection, schedule: Q04DX002 (ip), vehicle: Klucel (hydroxypropylcellulose) (HPC)): 0 of 3 | survivor count (dose: 200.0 mg/kg/injection, schedule: Q04DX002 (ip), vehicle: Klucel (hydroxypropylcellulose) (HPC)): 0 of 3 | survivor count (dose: 400.0 mg/kg/injection, schedule: Q04DX002 (ip), vehicle: Klucel (hydroxypropylcellulose) (HPC)): 0 of 3

CC(C1=C(CCN(C)C)Cc2ccccc21)c1ccccn1 (stereo not drawn)
survivor count [4]: 0 of 6 | survivor count [1]: 0 of 6

CC1(C)N=C(N)N=C(N)N1c1cccc(CCCCc2c(Cl)cccc2Cl)c1
survivor count [3]: 0 of 6 | survivor count [4]: 0 of 6 | survivor count [1]: 0 of 6

CNCC/C=C1\c2ccccc2CCSc2ccccc21
survivor count [8]: 0 of 6 | survivor count [6]: 0 of 6

CC(=O)NC1C(OC(C)=O)OC(COC(c2ccccc2)(c2ccccc2)c2ccccc2)C(OS(C)(=O)=O)C1OC(C)=O (stereo not drawn)
survivor count [7]: 3 of 3

CC(C)=CCC/C(C)=C\CN=C1C=CC(=O)O1
survivor count (dose: 100.0 mg/kg/injection, schedule: Q01DX009 (ip), vehicle: saline + alcohol): 1 of 6 | survivor count [8]: 1 of 6 | survivor count [6]: 0 of 6

O=C(O)c1cccnc1
survivor count (dose: 400.0 mg/kg/injection, schedule: Q01DX009 (ip), vehicle: Klucel (hydroxypropylcellulose) (HPC)): 2 of 6

ClC1(Cl)C2CCCCC21N1CCCCC1 (stereo not drawn)
survivor count [5]: 0 of 6 | survivor count [1]: 0 of 6

From PubChem BioAssay AID248 (DTP/NCI, 2004)
